Some of the results follow. The main result of the screen is listed elsewhere. These columns were measured beside it and carry no call. The list favours compounds with an active or inconclusive main result. The note in brackets gives the kind of curve behind each potency; many fits are weak.
Assay: qHTS Assay for Modulators of Lamin A Splicing
Settings: HeLa LMNA splicing GFP/RFP minigene ratio, 48 h
Outline: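 S3 HeLa stable clones carrying a lamin A-EGFP splicing minigene plus DsRed2 were seeded at 600 cells/well in Opti-MEM with 2% FBS, pin-dosed and incubated 48 h at 37°C. Acumen cytometry (488 nm) gave the GFP/RFP total-intensity ratio.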

[1] = measured here: GFP splicing reporter channel
[2] = measured here: RFP viability control channel

Structure (SMILES)	AC50 [1]	AC50 [2]
Fc1ccc(-c2ccnc3nc(-n4cccc4)nn23)cc1	35.5 µM [rising, single point]	–
O=C(Cc1cccs1)Nc1nc(-c2ccccc2)cs1	–	14.1 µM [rising, single point]
COc1ccc(OC)c(C2/C(=C(/O)c3cnn(-c4ccccc4)c3C)C(=O)C(=O)N2CCN(C)C)c1 (stereo not given)	–	12.6 µM [rising, partial curve]
CCN(CC)S(=O)(=O)c1ccc2c(c1)[nH]c(=S)n2CC	0.00891 µM [falling, full curve, poor fit]	–
COC(=O)c1c[nH]n2c(=O)c(C(C)C)c(C)nc12	–	1 µM [falling, full curve]
O=C(OCc1nc2ccccc2s1)c1ccco1	3.98 µM [falling, partial curve]	3.98 µM [falling, partial curve, poor fit]
COc1ccccc1CNC(=O)c1c(N)n(CCCN2CCOCC2)c2nc3ccccc3nc12	25.1 µM [falling, single point]	22.4 µM [falling, partial curve]
O=S(=O)(c1ccccc1)c1nc(NCc2ccccc2)sc1Cl	7.08 µM [rising, partial curve, poor fit]	20 µM [rising, partial curve]
Cc1cc(=O)[nH]c(SCC(=O)C23CC4CC(CC(C4)C2)C3)c1C#N	–	11.2 µM [rising, partial curve]
O=C(COc1ccc(Cl)cc1)Nc1nnc(S(=O)(=O)N2CCCCCC2)s1	4.47 µM [falling, full curve]	–
Cc1ccccc1-c1cc(-n2ccnc2)ncn1	11.2 µM [rising, partial curve]	11.2 µM [rising, partial curve]
O=C(NCCc1csc(-c2ccc(C(F)(F)F)cc2)n1)c1cccs1	14.1 µM [rising, partial curve]	14.1 µM [rising, partial curve]
COc1ccccc1N1CCN(C(CNC(=O)C(=O)NCc2cccnc2)c2cccnc2)CC1 (stereo not given)	22.4 µM [falling, partial curve, poor fit]	35.5 µM [falling, partial curve, poor fit]
CC(C)Cc1nn2c(=O)cc(COC(=O)c3ccc(NC(=O)C4CCCCC4)cc3)nc2s1	–	1.78 µM [falling, partial curve]
CSc1ncccc1C(=O)Nc1nc2ccc(Oc3ccccc3)cc2s1	–	7.08 µM [rising, single point]
O=C(NCc1nnc(SCC(=O)N2CCC(Cc3ccccc3)CC2)o1)c1ccccc1F	35.5 µM [rising, single point]	35.5 µM [rising, single point]
COc1cc(NC(=O)COC(=O)c2n[nH]c3ccccc23)c(C)cc1[N+](=O)[O-]	–	35.5 µM [rising, single point]
CC1CCCN(c2nc3c(c(=O)n(C)c(=O)n3C)n2Cc2ccccc2)C1 (stereo not given)	7.08 µM [rising, partial curve]	0.251 µM [rising, full curve, poor fit]
CCn1c(O)c(C=NC2CCCC(C)C2C)sc1=S (stereo not given)	35.5 µM [rising, partial curve, poor fit]	35.5 µM [rising, partial curve]

Three entries out of the list, ordered by length of the SMILES, low to high:
Structure (SMILES)	AC50 [1]	AC50 [2]
CCN(CC)S(=O)(=O)c1ccc2c(c1)[nH]c(=S)n2CC	0.00891 µM [falling, full curve, poor fit]	–
CC1CCCN(c2nc3c(c(=O)n(C)c(=O)n3C)n2Cc2ccccc2)C1 (stereo not given)	7.08 µM [rising, partial curve]	0.251 µM [rising, full curve, poor fit]
O=C(NCc1nnc(SCC(=O)N2CCC(Cc3ccccc3)CC2)o1)c1ccccc1F	35.5 µM [rising, single point]	35.5 µM [rising, single point]

(further entries)

Structure (SMILES)	AC50 [1]	AC50 [2]
CCCN1C(=O)/C(=C/c2ccc(C)o2)SC1=Nc1ccc(OC)cc1	35.5 µM [falling, single point]	35.5 µM [falling, single point]
O=C(NCCN1CCOCC1)NC1(C(F)(F)F)Oc2ccc(Cl)cc2O1 (stereo not given)	–	11.2 µM [rising, partial curve]
COc1cccc(-n2c(SCc3ccc(F)cc3)nc3c([nH]c4ccccc43)c2=O)c1	5.01 µM [rising, single point]	–
Cc1nn2c(C)c(C(=O)NCc3ccc(OC(C)C)cc3)cnc2c1-c1ccc(F)cc1	–	0.00398 µM [falling, full curve, poor fit]
Nc1nn(-c2ccccc2)c(N)c1N=Nc1ccc2c(c1)OCO2	35.5 µM [rising, single point]	15.8 µM [rising, single point]
O=C(NN1C(=O)C2C3c4ccccc4C(c4ccccc43)[C@@H]2C1=O)c1ccccc1 (stereo not given in full)	–	12.6 µM [rising, partial curve]
Cc1ccc2c(c1)-c1c(c(C(=O)N3CCN(c4cc(C)ccc4C)CC3)nn1C)CS2	–	11.2 µM [rising, single point]
COc1ccccc1C(=O)Nc1ccc(N2CCN(C(C)=O)CC2)cc1	–	2.24 µM [rising, partial curve]
C=CCN1C2CCCC1CC(NC(=S)Nc1cccc(OC)c1)C2 (stereo not given)	0.0251 µM [falling, full curve, poor fit]	–
CNCCNS(=O)(=O)c1cccc2cnccc12	5.62 µM [falling, partial curve, poor fit]	0.00447 µM [falling, full curve, poor fit]
O=C(NCc1ccco1)c1cnn2c(C(F)(F)F)cc(-c3cccs3)nc12	31.6 µM [rising, single point]	–
O=C(CSc1ncnc2scc(-c3ccccc3)c12)N1CCN(Cc2ccc3c(c2)OCO3)CC1	–	12.6 µM [rising, partial curve]
O=C(Nc1ccc(-c2cnco2)cc1)c1ccccc1	–	0.01 µM [falling, full curve, poor fit]
C=C(C)c1cccc(C(C)(C)NC(=O)N2CCN(c3ccc(OC)cc3)CC2)c1	–	11.2 µM [rising, single point]
Cc1cc(C)n(-c2nc3c(c(=O)[nH]c(=O)n3C)n2CC(O)COc2ccc(Cl)cc2Cl)n1 (stereo not given)	–	0.2 µM [rising, full curve, poor fit]
CC(C)OCCCNC(=O)Cc1ccc(NC(=O)N2CCCCc3ccccc32)cc1	0.00282 µM [falling, full curve, poor fit]	1 µM [falling, full curve, poor fit]
CN(C)S(=O)(=O)c1ccc(NC(=O)N2CCN(c3cccc(C(F)(F)F)c3)CC2)cc1	–	6.31 µM [rising, full curve]
CC1=NN(c2ccccc2)C(=O)/C1=C/c1c(O)n(-c2ccc(F)c(Cl)c2)[nH]c1=O	31.6 µM [rising, single point]	17.8 µM [rising, single point]
CCCCc1nc(SCC(=O)Nc2ccc(S(N)(=O)=O)cc2)n[nH]1	7.08 µM [rising, partial curve, poor fit]	–

Structure (SMILES)	AC50 [1]	AC50 [2]
Cc1[nH]nc(N=CC2=C(O)CC(C)(C)CC2=O)c1-c1ccccc1	–	20 µM [rising, partial curve, poor fit]
Cc1ccc(C(C)(C)C)cc1S(=O)(=O)Nc1cccc(S(=O)(=O)NC2=NCCC2)c1	2.24 µM [rising, full curve, poor fit]	7.08 µM [rising, partial curve]
N#Cc1c(-c2ccccc2)c(C#N)c2nc3ccccc3n2c1N	–	17.8 µM [rising, partial curve]
C/C(=N\NC(=O)c1ccccc1)c1cc2cc([N+](=O)[O-])ccc2oc1=O	–	35.5 µM [rising, single point]
C[n+]1ccn(CC(=O)c2ccc(Br)cc2)c1	11.2 µM [rising, single point]	10 µM [rising, partial curve, poor fit]
O=[N+]([O-])c1cc(C(F)(F)F)ccc1N1CCCC(O)C1 (stereo not given)	–	12.6 µM [rising, single point]
Cc1ccc(NC(=O)c2ccn(C)n2)c(Br)c1	–	0.0141 µM [falling, full curve, poor fit]
Cc1nnc(SCC(=O)N2CC(=O)Nc3ccccc32)n1-c1ccccc1	0.794 µM [rising, full curve, poor fit]	–
CCCCOc1cccc(C(=O)N(Cc2cccs2)C2CCS(=O)(=O)C2)c1 (stereo not given)	–	22.4 µM [rising, single point]
CCOc1cc(CNC(=O)C2CCN(c3nc4ccccc4[nH]3)CC2)cc(OCC)c1OCC	0.447 µM [rising, full curve]	–
COc1cccc(CC(=O)Nc2ccc(-c3nc4ccccc4s3)cc2Cl)c1	1.78 µM [falling, partial curve, poor fit]	0.00447 µM [falling, full curve, poor fit]
CCOc1ccc2nc(SCC(=O)NC3CCCc4ccccc43)sc2c1 (stereo not given)	11.2 µM [rising, partial curve]	10 µM [rising, partial curve]
CCOC(=O)CSC1=NC(=O)CS1	–	0.0794 µM [falling, full curve, poor fit]
O=C(Nc1ccccc1)c1ccc(COc2ccccc2)cc1	35.5 µM [rising, partial curve]	–
Cc1ccc2nsnc2c1NC(=O)c1ccc(-c2cc(Cl)ccc2Cl)o1	–	0.0447 µM [rising, full curve, poor fit]
CCN1CCN(C(=S)Nc2ccc3nc(N4CCN(CC)CC4)cc(C)c3c2)CC1	–	20 µM [rising, single point]
CCOc1ccc(NC(=O)COC(=O)c2ccc3c(c2)C(=O)N(CCc2ccccc2)C3=O)cc1	0.126 µM [rising, full curve, poor fit]	–
COc1ccc(CCNC(=O)CSc2nnc3ccccn23)cc1	0.0224 µM [falling, full curve]	0.0178 µM [falling, full curve]

Source: PubChem BioAssay AID1487 (National Center for Advancing Translational Sciences (NCATS), 2009)
